Experimental data published in publication PMC6548132, “Engineered SUMO/protease system identifies Pdr6 as a bidirectional nuclear transport receptor” (The Journal of Cell Biology, 2019).
Results are given in words; binding and its absence hold for the method and conditions named. In cells and extracts the contact can be indirect. A yes stands for co-enrichment or nearness to the bait. Other partners may have been found. Sequences can lack the tags named with a protein.

T1: ED-SUMO^Eu1-His12–tagged Pdr6 (S. cerevisiae) (UniProt P32767)
T1 sequence: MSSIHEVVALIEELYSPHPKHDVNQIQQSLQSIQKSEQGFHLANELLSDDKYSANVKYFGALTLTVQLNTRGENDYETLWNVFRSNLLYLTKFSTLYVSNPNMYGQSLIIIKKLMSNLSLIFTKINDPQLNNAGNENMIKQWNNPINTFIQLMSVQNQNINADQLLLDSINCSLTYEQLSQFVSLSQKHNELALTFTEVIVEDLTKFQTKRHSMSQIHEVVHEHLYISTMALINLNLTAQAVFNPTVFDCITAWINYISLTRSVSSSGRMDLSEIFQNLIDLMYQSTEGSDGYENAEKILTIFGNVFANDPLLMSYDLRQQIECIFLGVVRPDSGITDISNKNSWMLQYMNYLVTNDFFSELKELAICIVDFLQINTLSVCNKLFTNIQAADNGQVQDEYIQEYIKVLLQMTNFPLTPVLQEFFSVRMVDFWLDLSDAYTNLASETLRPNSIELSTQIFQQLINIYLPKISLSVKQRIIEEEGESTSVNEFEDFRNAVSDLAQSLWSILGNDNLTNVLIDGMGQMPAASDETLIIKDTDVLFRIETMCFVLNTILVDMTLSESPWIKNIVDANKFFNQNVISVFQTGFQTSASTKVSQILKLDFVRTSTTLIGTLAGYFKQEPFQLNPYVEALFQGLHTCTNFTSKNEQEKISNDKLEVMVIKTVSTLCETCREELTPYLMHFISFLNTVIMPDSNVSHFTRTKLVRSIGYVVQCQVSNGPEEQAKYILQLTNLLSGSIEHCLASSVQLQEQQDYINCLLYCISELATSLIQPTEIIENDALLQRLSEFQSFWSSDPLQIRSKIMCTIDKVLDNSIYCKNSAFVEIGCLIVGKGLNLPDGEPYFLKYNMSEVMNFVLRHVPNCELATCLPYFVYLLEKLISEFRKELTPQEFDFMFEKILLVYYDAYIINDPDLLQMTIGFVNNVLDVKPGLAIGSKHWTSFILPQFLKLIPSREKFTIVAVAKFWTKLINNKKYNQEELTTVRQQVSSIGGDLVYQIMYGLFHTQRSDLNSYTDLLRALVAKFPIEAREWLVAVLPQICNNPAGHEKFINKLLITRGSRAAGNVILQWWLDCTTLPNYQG

B1: Toa1 (endogenous, yeast extract) (protein, UniProt P32773 1-286)
chain: MSNAEASRVYEIIVESVVNEVREDFENAGIDEQTLQDLKNIWQKKLTETKVTTFSWDNQFNEGNINGVQNDLNFNLATPGVNSSEFNIKEENTGNEGLILPNINSNNNIPHSGETNINTNTVEATNNSGATLNTNTSGNTNADVTSQPKIEVKPEIELTINNANITTVENIDDESEKKDDEEKEEDVEKTRKEKEQIEQVKLQAKKEKRSALLDTDEVGSELDDSDDDYLISEGEEDGPDENLMLCLYDKVTRTKARWKCSLKDGVVTINRNDYTFQKAQVEAEWV
B2: Wtm1 (endogenous, yeast extract) (protein, UniProt Q12363 1-437)
chain: MPKKVWKSSTPSTYEHISSLRPKFVSRVDNVLHQRKSLTFSNVVVPDKKNNTLTSSVIYSQGSDIYEIDFAVPLQEAASEPVKDYGDAFEGIENTSLSPKFVYQGETVSKMAYLDKTGETTLLSMSKNGSLAWFKEGIKVPIHIVQELMGPATSYASIHSLTRPGDLPEKDFSLAISDFGISNDTETIVKSQSNGDEEDSILKIIDNAGKPGEILRTVHVPGTTVTHTVRFFDNHIFASCSDDNILRFWDTRTSDKPIWVLGEPKNGKLTSFDCSQVSNNLFVTGFSTGIIKLWDARAAEAATTDLTYRQNGEDPIQNEIANFYHAGGDSVVDVQFSATSSSEFFTVGGTGNIYHWNTDYSLSKYNPDDTIAPPQDATEESQTKSLRFLHKGGSRRSPKQIGRRNTAAWHPVIENLVGTVDDDSLVSIYKPYTEESE
B3: H14-ZZ-NEDD8–tagged Ubc9 (enzyme, yeast (S. cerevisiae), UniProt P50623 1-157, looked up)
chain: MSSLCLQRLQEERKKWRKDHPFGFYAKPVKKADGSMDLQKWEAGIPGKEGTNWAGGVYPITVEYPNEYPSKPPKVKFPAGFYHPNVYPSGTICLSILNEDQDWRPAITLKQIVLGVQDLLDSPNPNSPAQEPAWRSFSRNKAEYDKKVLLQAKQYSK
notes: Ubc9, SUMO-conjugating E2 enzyme of yeast; Tag is cut by NEDP1 only at elution; also called immobilized Ubc9; source: E. coli NEB express, purified (Ni2+ chelate beads)

Each binder was assayed against T1, ED-SUMO^Eu1-His12–tagged Pdr6 (S. cerevisiae) (assay: affinity purification with mass spectrometry; 0.5 µM ED-SUMO^Eu1-His12-Pdr6 as bait in yeast cell extract (GK75 buffer) without RanGTP; anti-ZZ/ED affibody beads 1 h at 4°C, elution by SENP^EuB cleavage, recapture on Ni2+ chelate beads, cargo release with 3 M guanidinium-HCl; SDS-PAGE/Coomassie, excised bands identified by LC-MS; only the target purified).

binding, binds:
B1
B2
B3
